Source: PubChem BioAssay AID256 (DTP/NCI, 2004)
The list does not hold the whole screen: it is rich in T/C values a quarter to a half above the control, in often repeated tests (any T/C) and in doses without a T/C. Further doses and runs are listed elsewhere. T/C: endpoint of the treated group in % of that of the vehicle group. Some doses have a count of surviving animals in place of a T/C: the source files T/C as zero there, which appears to mark a toxic dose or a test without result, not a measured value. Some survivor counts are full or nearly so, which does not show that the dose was tolerated: survival well below the control is almost never listed, so the zero probably covers shortened survival too. Survivors were counted at the toxicity check, usually on the fifth day, unless a day is given; later deaths do not show. Schedules are NCI's codes, taken here to give the interval after Q, in days (D) or hours (H), and the number of doses after X. Marks such as (2×) say how often a value occurs here. Some entries hold several experiments; the results are listed from low to high. For survival time, this PubChem deposit counts one and a half times the control or more as active, and values a quarter to a half above the control carry no call in these data; other NCI protocols may use other cut-offs. Some T/C values carry the count of animals alive at the toxicity check (mostly the fifth day); where none is given, no animal had died by that day.

System: CD2F1 mice, L1210 leukemia ip, survival T/C
Test: NCI In Vivo Anticancer Drug Screen. Data for tumor model L1210 Leukemia (intraperitoneal) in CD2F1 (CDF1) mice
Details: higher T/C = longer survival
Procedure, shortened: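 Ratio T/C, where T is the treated-group value and C the vehicle-dosed control value, from mice implanted with a transplantable tumor.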

[1] = T/C endpoint: mean survival time, dose: 400.0 mg/kg/injection, schedule: Q04DX003 (ip), vehicle: saline
[2] = T/C endpoint: mean survival time, dose: 400.0 mg/kg/injection, schedule: Q04DX003 (ip), vehicle: saline with Tween-80
[3] = T/C endpoint: mean survival time, dose: 11.0 mg/kg/injection, schedule: Q01DX009 (ip), vehicle: saline
[4] = T/C endpoint: mean survival time, dose: 100.0 mg/kg/injection, schedule: Q04DX003 (ip), vehicle: saline with Tween-80
[5] = T/C endpoint: mean survival time, dose: 200.0 mg/kg/injection, schedule: Q04DX003 (ip), vehicle: saline with Tween-80
[6] = T/C endpoint: mean survival time, dose: 100.0 mg/kg/injection, schedule: Q01DX001 (ip), vehicle: saline with Tween-80
[7] = T/C endpoint: mean survival time, dose: 400.0 mg/kg/injection, schedule: Q01DX001 (ip), vehicle: saline with Tween-80
[8] = T/C endpoint: mean survival time, dose: 100.0 mg/kg/injection, schedule: Q01DX001 (ip), vehicle: saline
[9] = T/C endpoint: mean survival time, dose: 200.0 mg/kg/injection, schedule: Q01DX001 (ip), vehicle: saline
[10] = T/C endpoint: mean survival time, dose: 400.0 mg/kg/injection, schedule: Q01DX001 (ip), vehicle: saline

COc1ccc(C2=NC(C)Cc3cc(OC)c(OC)cc32)cc1OC (stereo unspecified) was tested, and the survivor count (T/C endpoint: mean survival time, dose: 200.0 mg/kg/injection, schedule: Q01DX009 (ip), vehicle: water) was 1 of 6.
With CCN(CC)CCOc1ccc(NC(=O)c2ccccc2)cc1 the survivor count (T/C endpoint: mean survival time, dose: 100.0 mg/kg/injection, schedule: Q04DX003 (ip), vehicle: saline) was 0 of 3, the survivor count (T/C endpoint: mean survival time, dose: 200.0 mg/kg/injection, schedule: Q04DX003 (ip), vehicle: saline) was 0 of 3 and the survivor count [1] was 0 of 3.
CC(Cc1ccccc1)NC(C)Cc1ccccc1 (stereo unspecified) was tested, and the survivor count [2] was 0 of 3.
COc1cc2cc[n+]3c(C)c4cc5c(cc4cc3c2cc1OC)OCO5 (tested in a mixture with another compound) was tested, and the T/C (T/C endpoint: mean survival time, dose: 11.0 mg/kg/injection, schedule: Q01DX009 (ip), vehicle: saline with Tween-80) was 129 % of control, the T/C [3] was 137 % of control and the T/C (T/C endpoint: mean survival time, dose: 12.5 mg/kg/injection, schedule: Q01DX009 (ip), vehicle: saline) was 133 % of control. For the same compound, the T/C (T/C endpoint: mean survival time, dose: 16.5 mg/kg/injection, schedule: Q01DX009 (ip), vehicle: saline with Tween-80) was 134 % of control, the T/C (T/C endpoint: mean survival time, dose: 16.5 mg/kg/injection, schedule: Q01DX009 (ip), vehicle: saline) was 132 % of control and the T/C (T/C endpoint: mean survival time, dose: 25.0 mg/kg/injection, schedule: Q01DX009 (ip), vehicle: saline) was 130 and 144 % of control. For the same compound, the survivor count [1] was 2 of 6.
In the case of Cn1c(=O)c2c(ncn2-c2ccncc2)n(C)c1=O, the survivor count (T/C endpoint: mean survival time, dose: 200.0 mg/kg/injection, schedule: Q01DX005 (ip), vehicle: saline with Tween-80) is reported as 1 of 6.
For CN(C)c1cc(C(C)(C)C)nc(C(C)(C)C)c1, the survivor count (T/C endpoint: mean survival time, dose: 100.0 mg/kg/injection, schedule: Q04DX002 (ip), vehicle: saline) was 0 of 3, the survivor count (T/C endpoint: mean survival time, dose: 200.0 mg/kg/injection, schedule: Q04DX002 (ip), vehicle: saline) was 0 of 3 and the survivor count (T/C endpoint: mean survival time, dose: 400.0 mg/kg/injection, schedule: Q04DX002 (ip), vehicle: saline) was 0 of 3.
For O=C1C=C(NC2CCCCCC2)C(=O)c2nccnc21, the survivor count (T/C endpoint: mean survival time, dose: 100.0 mg/kg/injection, schedule: Q01DX009 (ip), vehicle: saline with Tween-80) was 0 of 3 and the survivor count (T/C endpoint: mean survival time, dose: 200.0 mg/kg/injection, schedule: Q01DX009 (ip), vehicle: saline with Tween-80) was 0 of 3.
With N#CC(O)Cc1ccccc1 (stereo unspecified) the survivor count (T/C endpoint: mean survival time, dose: 20.0 mg/kg/injection, schedule: Q04DX003 (ip), vehicle: saline) was 1 of 6, the survivor count (T/C endpoint: mean survival time, dose: 100.0 mg/kg/injection, schedule: Q04DX003 (ip), vehicle: other) was 0 of 6 and the survivor count (T/C endpoint: mean survival time, dose: 200.0 mg/kg/injection, schedule: Q04DX003 (ip), vehicle: other) was 0 of 6. The survivor count (T/C endpoint: mean survival time, dose: 400.0 mg/kg/injection, schedule: Q04DX003 (ip), vehicle: other) was 0 of 6.
For CCCCCCNC(=O)Oc1c(C/C=C/CCC(=O)O)c(OC)c(C)c2c1C(=O)OC2, the T/C (T/C endpoint: mean survival time, dose: 400.0 mg/kg/injection, schedule: Q04DX002 (ip), vehicle: saline with Tween-80) was 128 % of control (2×).
With COCc1nnc2nc[nH]c(=O)c2n1 the survivor count (T/C endpoint: mean survival time, dose: 400.0 mg/kg/injection, schedule: Q01DX001 (ip), vehicle: carboxymethylcellulose (CMC)) was 1 of 6.
Cc1occc1S(N)(=O)=O was tested, and the survivor count (T/C endpoint: mean survival time, dose: 150.0 mg/kg/injection, schedule: Q04DX002 (ip), vehicle: saline with Tween-80) was 1 of 3 and the survivor count (T/C endpoint: mean survival time, dose: 300.0 mg/kg/injection, schedule: Q04DX002 (ip), vehicle: saline with Tween-80) was 1 of 3.
In the case of CC1OC(OC2C(OC3CCC4(C)C(CCC5(C)C4CC=C4C6CC(C)(C)CCC6(CO)C(O)CC45C)C3(C)C)OC(CO)C(OC3OC(COC4OC(CO)C(O)C(O)C4O)C(O)C(O)C3O)C2O)C(O)C(O)C1O (stereo unspecified), the survivor count (T/C endpoint: mean survival time, dose: 100.0 mg/kg/injection, schedule: Q01DX001 (sc), vehicle: steroid suspending solution) is reported as 1 of 6 and the survivor count (T/C endpoint: mean survival time, dose: 200.0 mg/kg/injection, schedule: Q01DX001 (sc), vehicle: steroid suspending solution) is reported as 0 of 6.
With C=C1C(C)C2C(Cc3ccccc3)NC(=O)C23C(OC(C)=O)/C=C/C(C)(O)CC(C)C/C=C/C3C1O (stereo unspecified) the survivor count (T/C endpoint: mean survival time, dose: 12000.0 micrograms/kg/injection, schedule: Q01DX009 (ip), vehicle: Klucel (hydroxypropylcellulose) (HPC)) was 4 of 6.
With CCC(C)(C[NH-])C[NH-].[Cl][Pt+2][Cl] the T/C (T/C endpoint: mean survival time, dose: 12.5 mg/kg/injection, schedule: Q04DX003 (ip), vehicle: saline) was 147 % of control, the survivor count (T/C endpoint: mean survival time, dose: 25.0 mg/kg/injection, schedule: Q04DX003 (ip), vehicle: saline with Tween-80) was 6 of 6 and the survivor count (T/C endpoint: mean survival time, dose: 50.0 mg/kg/injection, schedule: Q04DX003 (ip), vehicle: saline with Tween-80) was 0 of 6. The survivor count [4] was 0 of 6 and the survivor count [5] was 0 of 6.
With Nc1nc[nH]c(=O)c1NC(=O)c1cccc([N+](=O)[O-])c1 the T/C [4] was 94, 97, 100, 108 % of control, the T/C [5] was 89, 101, 110 % of control [5 of 6 alive] and the survivor count [5] was 3 of 3. For the same compound, the T/C [2] was 98 [4 of 6 alive], 101, 106 % of control [5 of 6 alive] and the survivor count [2] was 0 of 3.
In the case of CC1(C)N=C(N)N=C(N)N1c1ccc(OCCOc2ccc(NC(=O)CBr)cc2)cc1, the T/C (T/C endpoint: mean survival time, dose: 400.0 mg/kg/injection, schedule: Q01DX006 (ip), vehicle: other) is reported as 149 % of control.
With [Co].[N-]=C=S.[N-]=C=S.[N-]=C=S.[NH2-].[NH2-].[NH2-] the T/C [6] was 94, 97, 101, 110 % of control, the T/C (T/C endpoint: mean survival time, dose: 200.0 mg/kg/injection, schedule: Q01DX001 (ip), vehicle: saline with Tween-80) was 87, 101, 103, 109 % of control [5 of 6 alive] and the T/C [7] was 121 % of control [2 of 3 alive]. The survivor count [7] was 0 of 6 and 1 of 6 and the survivor count (T/C endpoint: mean survival time, dose: 600.0 mg/kg/injection, schedule: Q01DX001 (ip), vehicle: saline with Tween-80) was 0 of 6.
CCN(CC)Cc1cc(Nc2ncnc3[nH]c(C)c(C)c23)ccc1O was tested, and the survivor count (T/C endpoint: mean survival time, dose: 100.0 mg/kg/injection, schedule: Q04DX002 (ip), vehicle: saline with Tween-80) was 3 of 3 and the survivor count [7] was 1 of 6.
In the case of CSc1ncnc2c1c(C#N)cn2C1OC(CO)C(O)C1O (stereo unspecified), the T/C [3] is reported as 136 % of control, the T/C (T/C endpoint: mean survival time, dose: 19.0 mg/kg/injection, schedule: Q01DX009 (ip), vehicle: saline) is reported as 146 % of control and the T/C [8] is reported as 127 % of control. For the same compound, the T/C [9] was 141 % of control and the survivor count [10] was 2 of 6.
For NC1=NC(c2ccccc2)N(c2ccc(Cl)cc2)C(N)=N1 (stereo unspecified), the survivor count [7] was 2 of 6.
With CCN(CC)C(=O)c1ccccc1 the survivor count (T/C endpoint: mean survival time, dose: 400.0 mg/kg/injection, schedule: Q01DX009 (ip), vehicle: saline) was 1 of 6.
For N#C/C(=C\c1c[nH]c2ccccc12)C(N)=O, the survivor count (T/C endpoint: mean survival time, dose: 200.0 mg/kg/injection, schedule: Q01DX009 (ip), vehicle: other) was 6 of 6.
ClP1(c2ccccc2)=NP(Cl)(c2ccccc2)=NP(Cl)(c2ccccc2)=NP(Cl)(c2ccccc2)=N1 (stereo unspecified) was tested, and the survivor count [2] was 6 of 6.
With CN(C)CCCN=c1c2ccccc2n(C)c2[nH]c(=O)n(C)c(=O)c12 the T/C (T/C endpoint: median survival time, dose: 30.0 mg/kg/injection, schedule: Q01DX005 (ip), vehicle: saline) was 125 % of control, the survivor count (T/C endpoint: median survival time, dose: 83.33 mg/kg/injection, schedule: Q01DX005 (ip), vehicle: saline) was 5 of 6 and the survivor count (T/C endpoint: median survival time, dose: 240.0 mg/kg/injection, schedule: Q01DX005 (ip), vehicle: saline) was 0 of 6.
For O=C1C=CC(=O)N1c1cccc(N2C(=O)C=CC2=O)c1, the survivor count (T/C endpoint: mean survival time, dose: 16.0 mg/kg/injection, schedule: Q01DX009 (ip), vehicle: saline) was 0 of 6.
For NNc1ncn[nH]1, the survivor count [6] was 0 of 6.
In the case of Oc1c(O)c(Br)c(Br)c(Br)c1Br, the survivor count (T/C endpoint: mean survival time, dose: 400.0 mg/kg/injection, schedule: Q01DX001 (ip), vehicle: other) is reported as 2 of 6.
For CN(C)CCCN1c2ccccc2Sc2ccc(C(F)(F)F)cc21, the survivor count (T/C endpoint: mean survival time, dose: 50.0 mg/kg/injection, schedule: Q01DX009 (ip), vehicle: saline) was 3 of 6, the survivor count [8] was 1 of 6 and 3 of 6 and the survivor count [9] was 0 of 6 (2×). For the same compound, the survivor count [10] was 0 of 6.
